Measured values as given in paper PMC3617097.
Results are given in words; binding and its absence hold for the method and conditions named. In cells and extracts the contact can be indirect. Some results given as binding are weak or reduced against the parent protein; the word gives no strength.

Molecular target: T1, SNAP23 (human (endogenous in H69)) (UniProt O00161)
T1 sequence: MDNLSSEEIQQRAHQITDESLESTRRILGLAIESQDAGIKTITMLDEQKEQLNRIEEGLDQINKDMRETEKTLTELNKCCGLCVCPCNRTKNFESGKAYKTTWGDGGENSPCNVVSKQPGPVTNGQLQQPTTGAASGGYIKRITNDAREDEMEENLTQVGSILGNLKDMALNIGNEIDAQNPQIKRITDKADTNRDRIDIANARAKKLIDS
Test: co-IP; H69 cells, non-infected or exposed to C. parvum for 24 h; interaction of SNAP23 and IKK2 measured by IP; which protein was precipitated is not told in the shown text (details in Text S1)

binding: binds
B1: IKK2 (enzyme, UniProt O14920 1-756)
chain: MSWSPSLTTQTCGAWEMKERLGTGGFGNVIRWHNQETGEQIAIKQCRQELSPRNRERWCLEIQIMRRLTHPNVVAARDVPEGMQNLAPNDLPLLAMEYCQGGDLRKYLNQFENCCGLREGAILTLLSDIASALRYLHENRIIHRDLKPENIVLQQGEQRLIHKIIDLGYAKELDQGSLCTSFVGTLQYLAPELLEQQKYTVTVDYWSFGTLAFECITGFRPFLPNWQPVQWHSKVRQKSEVDIVVSEDLNGTVKFSSSLPYPNNLNSVLAERLEKWLQLMLMWHPRQRGTDPTYGPNGCFKALDDILNLKLVHILNMVTGTIHTYPVTEDESLQSLKARIQQDTGIPEEDQELLQEAGLALIPDKPATQCISDGKLNEGHTLDMDLVFLFDNSKITYETQISPRPQPESVSCILQEPKRNLAFFQLRKVWGQVWHSIQTLKEDCNRLQQGQRAAMMNLLRNNSCLSKMKNSMASMSQQLKAKLDFFKTSIQIDLEKYSEQTEFGITSDKLLLAWREMEQAVELCGRENEVKLLVERMMALQTDIVDLQRSPMGRKQGGTLDDLEEQARELYRRLREKPRDQRTEGDSQEMVRLLLQAIQSFEKKVRVIYTQLSKTVVCKQKALELLPKVEEVVSLMNEDEKTVVRLQEKRQKELWNLLKIACSKVRGPVSGSPDSMNASRLSQPGQLMSQPSTASNSLPEPAKKSEELVAEAHNLCTLLENAIQDTVREQDQSFTALDWSWLQTEEEEHSCLEQAS
